For at least one entry, the source does not settle the construct or the ends of the probe. For part of these data: Weaker means in comparison with the reference protein, sequence or condition of that experiment. For part of these data: Protein sequences can lack the tags named with them.
What was measured:
STAR-2-STAR (C. elegans) = test: competition FP; conditions: probe C21A TGE; 10 mM Tris pH 8.0, 25 mM NaCl, 0.1 mM EDTA, 0.1 mg/mL tRNA, 5 ug/mL heparin, 0.01% IGEPAL CA630, room temperature, 3 h; EMSA gel 6% native, 0.5x TBE, 4 C; recombinant protein; protein details: N-terminal MBP fusion (pMal-c2x); label: unlabeled competitor
Qk-1-STAR (mouse) = target: T1, Qk-1-STAR (mouse) (UniProt Q9QYS9); test: EMSA; conditions: 10 mM Tris pH 8.0, 25 mM NaCl, 0.1 mM EDTA, 0.1 mg/mL tRNA, 5 ug/mL heparin, 0.01% IGEPAL CA630, room temperature, 3 h; EMSA gel 6% native, 0.5x TBE, 4 C; recombinant protein; protein details: MBP fusion; label: 5' 32P
T1 sequence (looked up, limits assumed): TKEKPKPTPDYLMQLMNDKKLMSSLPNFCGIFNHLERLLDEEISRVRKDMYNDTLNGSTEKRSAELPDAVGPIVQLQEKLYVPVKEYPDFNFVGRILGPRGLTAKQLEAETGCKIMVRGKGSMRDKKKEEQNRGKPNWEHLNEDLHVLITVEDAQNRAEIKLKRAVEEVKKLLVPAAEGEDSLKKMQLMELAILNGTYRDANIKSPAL

Sequence	binding result (STAR-2-STAR (C. elegans))	Kd (Qk-1-STAR (mouse))
AUCUACUAAUAU [C21A (A21) half-site 12-mer]	binds	–
AUCUACUCAUAU [WT TGE half-site 12-mer (14-25; A21C in the A21 background)]	binds more weakly	–
GACACACUAACCUCGGUGGAAAGUGGAACAU [MBP:2-3'm1]	–	> 1000 nM
